Measurements as given in US10590454B2, “Methods of preventing and removing trisulfide bonds” (Biogen MA Inc., priority 2011, dated 2020).
At least one structure is not confirmed: it was looked up by name or label, or the drawing left a doubt.

System: cysteine degradation (release of hydrogen sulfide)
Experiment: Release of hydrogen sulfide from cysteine-containing medium with inhibitors of cysteine degradation
Experimental: In order to test the effect of cysteine degradation inhibitors on release of hydrogen sulfide in cell-culture medium, various inhibitors were added to the medium at the concentration of 17.7 mM, which represents a 1:1 ratio to the concentration of cysteine in the medium. Released hydrogen sulfide concentration was measured after 24 hours of incubation. Briefly, 50 ml of medium was incubated overnight in a closed 100 ml bottle. The headspace was therefore equal to the liquid volume of the container. A Jerome 631-X hydrogen sulfide detector was connected to a short piece of silicon tubing to minimize holdup volume in the instrument. The end of the tubing was inserted into the headspace of the medium-containing bottle, and the Jerome 631-X detector sampled the headspace immediately after opening the bottle.
The effect of pyruvate on release of hydrogen sulfide from cysteine degradation was further tested. The experiments were performed as described above in Example 9. Concentration of released hydrogen sulfide was measured after incubation from solutions containing 17.7 mM cysteine, plus 200 g/L glucose or subgroups of amino acids, in the absence or presence of pyruvate.
The effect of pyruvate on release of hydrogen sulfide from cysteine degradation was also tested in various cell-culture media, including feed liquid, IMDM and DMEM. […]

CC(=O)C(=O)O [pyruvate]
Release of hydrogen sulfide (cell-culture medium, inhibitor 17.7 mM (1:1 to cysteine), 24 hours): functionally stopped release of hydrogen sulfide
Release of hydrogen sulfide (solutions with 17.7 mM cysteine plus 200 g/L glucose or subgroups of amino acids): significantly decreased
